Some results were stated once for a whole list of compounds, not compound by compound.
Tested on: Botrytis cinerea
Experiment: Activity against gray mold on bell pepper leaves caused by Botrytis cinerea, protective application
Type: in vivo
Details: 250 ppm, sprayed 1 day before inoculation, bell pepper seedlings, rated after 5 days; untreated plants 90% infected

**Q.** Cc1nc2ncnn2c([C@H](C)C(C)C)c1-c1c(F)cc(F)cc1F [Compound I-7, 5-methyl-6-(2,4,6-trifluorophenyl)-7-(R-1,2-dimethylprop-1-yl)-1,2,4-triazolo[1,5a]pyrimidine] was tested. Which “infection (extent of the fungal infection on the leaves, determined visually)” value did it give?
**A.** at most 1%

**Q.** For Cc1nc2ncnn2c(N2CCCC2C)c1-c1c(F)cc(F)cc1F (centres unmarked) [Compound I-2, 5-methyl-6-(2,4,6-trifluorophenyl)-7-(2-methylpyrrolidin-1-yl)-1,2,4-triazolo[1,5a]pyrimidine], which “infection (extent of the fungal infection on the leaves, determined visually)” value is on record?
**A.** at most 1%

— patent publication US20070208038A1, “6-(2-Fluorophenyl)-Triazolopyrimidines, Method for Producing Them, Their use for Controlling Parasitic Fungi and Agents Containing the Same” (BASF Aktiengesellschaft, priority 2004, published 2007)
